Measurements: patent publication US20130237684A1
No constants are given. Whether binding was seen depends on the method and setting. Some entries that bind do so weakly or less than the wild type.

Chains of the proteins cited; added tags and fusions are not shown. Lines headed by an entry give the natural chain unless they say otherwise; changes in a name come on top.
UniProt P02751: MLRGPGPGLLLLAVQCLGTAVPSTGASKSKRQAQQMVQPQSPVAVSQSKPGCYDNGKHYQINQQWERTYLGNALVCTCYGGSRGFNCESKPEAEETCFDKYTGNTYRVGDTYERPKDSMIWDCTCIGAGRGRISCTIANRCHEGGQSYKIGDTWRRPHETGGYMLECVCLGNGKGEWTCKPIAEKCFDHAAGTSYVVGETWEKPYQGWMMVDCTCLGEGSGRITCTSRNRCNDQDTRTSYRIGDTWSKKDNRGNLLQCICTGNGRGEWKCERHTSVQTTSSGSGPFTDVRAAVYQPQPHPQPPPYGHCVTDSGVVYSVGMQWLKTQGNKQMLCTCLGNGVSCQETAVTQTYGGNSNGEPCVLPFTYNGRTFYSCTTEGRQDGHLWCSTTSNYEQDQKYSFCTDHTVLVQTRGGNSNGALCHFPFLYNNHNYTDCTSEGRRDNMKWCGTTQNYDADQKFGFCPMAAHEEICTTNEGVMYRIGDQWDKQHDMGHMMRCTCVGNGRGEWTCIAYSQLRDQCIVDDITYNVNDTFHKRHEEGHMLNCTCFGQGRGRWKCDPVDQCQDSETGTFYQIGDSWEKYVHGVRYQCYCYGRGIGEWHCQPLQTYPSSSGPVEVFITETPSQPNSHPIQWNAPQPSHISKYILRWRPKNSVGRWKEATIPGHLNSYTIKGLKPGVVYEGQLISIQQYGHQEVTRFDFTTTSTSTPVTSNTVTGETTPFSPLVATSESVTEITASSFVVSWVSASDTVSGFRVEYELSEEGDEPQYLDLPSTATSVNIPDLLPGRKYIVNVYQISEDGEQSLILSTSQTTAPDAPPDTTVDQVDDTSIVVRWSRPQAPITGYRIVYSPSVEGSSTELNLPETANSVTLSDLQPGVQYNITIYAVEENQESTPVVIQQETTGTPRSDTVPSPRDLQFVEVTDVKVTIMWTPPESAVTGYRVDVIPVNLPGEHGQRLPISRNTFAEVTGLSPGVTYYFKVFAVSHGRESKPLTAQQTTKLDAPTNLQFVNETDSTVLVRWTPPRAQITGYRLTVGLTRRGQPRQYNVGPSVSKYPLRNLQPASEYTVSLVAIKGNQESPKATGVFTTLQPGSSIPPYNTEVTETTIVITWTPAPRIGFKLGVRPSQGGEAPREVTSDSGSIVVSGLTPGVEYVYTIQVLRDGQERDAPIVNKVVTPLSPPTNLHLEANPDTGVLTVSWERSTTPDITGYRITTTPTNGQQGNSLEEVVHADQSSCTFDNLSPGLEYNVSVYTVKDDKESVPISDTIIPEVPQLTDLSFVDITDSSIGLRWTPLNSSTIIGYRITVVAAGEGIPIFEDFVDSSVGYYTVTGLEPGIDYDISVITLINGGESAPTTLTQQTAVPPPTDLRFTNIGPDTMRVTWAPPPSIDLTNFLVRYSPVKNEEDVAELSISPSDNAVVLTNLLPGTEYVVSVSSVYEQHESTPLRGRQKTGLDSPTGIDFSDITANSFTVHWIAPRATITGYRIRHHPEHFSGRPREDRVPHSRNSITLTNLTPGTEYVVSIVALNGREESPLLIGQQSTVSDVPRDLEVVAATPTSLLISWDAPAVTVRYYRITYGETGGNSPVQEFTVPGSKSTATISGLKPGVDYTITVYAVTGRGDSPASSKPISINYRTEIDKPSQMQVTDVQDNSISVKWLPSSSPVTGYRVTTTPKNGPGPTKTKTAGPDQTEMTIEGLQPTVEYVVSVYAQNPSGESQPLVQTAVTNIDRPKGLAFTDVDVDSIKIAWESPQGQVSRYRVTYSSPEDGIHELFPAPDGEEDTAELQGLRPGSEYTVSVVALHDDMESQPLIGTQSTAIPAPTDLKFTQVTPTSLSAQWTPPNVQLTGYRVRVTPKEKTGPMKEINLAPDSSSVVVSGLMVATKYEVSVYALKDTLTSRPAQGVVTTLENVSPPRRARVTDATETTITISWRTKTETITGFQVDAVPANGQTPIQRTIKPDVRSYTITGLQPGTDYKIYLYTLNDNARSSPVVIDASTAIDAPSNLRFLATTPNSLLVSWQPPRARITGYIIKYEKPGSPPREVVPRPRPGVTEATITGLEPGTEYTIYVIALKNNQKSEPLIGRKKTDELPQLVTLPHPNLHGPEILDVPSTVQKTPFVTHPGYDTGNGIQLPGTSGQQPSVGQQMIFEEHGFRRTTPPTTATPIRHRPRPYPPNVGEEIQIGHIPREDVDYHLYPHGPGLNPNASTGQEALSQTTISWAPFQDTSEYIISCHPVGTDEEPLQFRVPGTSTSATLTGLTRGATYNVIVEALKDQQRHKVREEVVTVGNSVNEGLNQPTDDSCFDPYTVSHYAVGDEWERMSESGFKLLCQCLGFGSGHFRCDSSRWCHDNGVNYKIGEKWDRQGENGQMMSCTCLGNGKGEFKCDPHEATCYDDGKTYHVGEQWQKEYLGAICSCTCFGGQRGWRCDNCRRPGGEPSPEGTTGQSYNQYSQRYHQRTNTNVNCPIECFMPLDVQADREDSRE

Tests used:
[1] = molecular target: LexA-C terminal fragment of monobody fusion protein with the FG loop of monobody pYT0319 (human); assay: yeast two-hybrid, β-galactosidase agarose overlay
[2] = molecular target: LexA-C terminal fragment of monobody fusion protein with the FG loop of monobody pYT4699 (human); assay: yeast two-hybrid, β-galactosidase agarose overlay
[3] = molecular target: LexA-C terminal fragment of FNfn10 (DEFG strands) fusion protein, wild-type FG loop (human) (UniProt P02751); assay: yeast two-hybrid, β-galactosidase agarose overlay
[4] = molecular target: LexA-C terminal fragment of monobody fusion protein with the FG loop of monobody pYT0319 (human); assay: yeast two-hybrid
[5] = molecular target: LexA-C terminal fragment of monobody fusion protein with the FG loop of monobody pYT4699 (human); assay: yeast two-hybrid
[6] = molecular target: LexA-C terminal fragment of FNfn10 (DEFG strands) fusion protein, wild-type FG loop (human) (UniProt P02751); assay: yeast two-hybrid
[7] = molecular target: LexA-C terminal fragment of monobody fusion protein with the FG loop of monobody pYT0319 (human); assay: yeast two-hybrid, β-galactosidase agarose overlay of mated strains
[8] = molecular target: LexA-C terminal fragment of monobody fusion protein with the FG loop of monobody pYT4699 (human); assay: as above
[9] = molecular target: LexA-C terminal fragment of FNfn10 (DEFG strands) fusion protein, wild-type FG loop (human) (UniProt P02751); assay: as above
[10] = molecular target: Aga2-C-FN3 (residues 43-94)-V5-His fusion protein displayed on yeast (human); assay: flow cytometry of mated yeast: surface C-FN3 by anti-V5/FITC, captured secreted N-FN3 by anti-FLAG/PE
[11] = molecular target: Aga2-C-FN3 (residues 43-94)-V5-His fusion protein displayed on yeast (human); assay: yeast surface display, flow cytometry with anti-FLAG (PE) and anti-V5 (FITC)

Measured: binding

FLAG tag-N terminal fragment of FNfn10 (ABC strands)-NLS-B42 fusion protein (from UniProt P02751 1538-1579)
not listed: [10] | [11]
binds: all other assays above

N-FN3 (residues 1-42) followed by the FLAG tag, secreted from yeast (from UniProt P02751 1538-1579)
binds: [10] | [11]
